# The supplement of paper PMC8728848
# The list shows a part of the results.
# Experiments:
# Assay in all cases: glycan array binding signal (z-score within array); higher = stronger binding
# Conditions in all cases: glycan notation: IUPAC condensed, linker removed
# Gal(b1-3)GalNAc(b1-3)Gal = molecular target: Gal(b1-3)GalNAc(b1-3)Gal
# In short: (§1)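 Columns mapping to the same glycan were averaged after glycan names were converted to IUPAC-condensed notation. The data come from 3228 arrays in the Consortium for Functional Glycomics database, limited to those with an available protein sequence. Binding is reported as a within-array Z-score averaged across arrays of one protein sequence and across linkers.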
# [1] = molecular target: Gal(b1-3)GalNAc(b1-3)Gal(a1-4)Gal(b1-4)Glc
# In short: as §1
# [2] = molecular target: Gal(b1-3)GalNAc(b1-4)Gal(b1-4)Glc
# In short: as §1
# [3] = molecular target: Gal(b1-3)GalNAc(b1-4)[Neu5Ac(a2-3)]Gal(b1-4)Glc
# In short: as §1
# Gal(b1-3)GlcNAc = molecular target: Gal(b1-3)GlcNAc
# In short: as §1
# [4] = molecular target: Gal(b1-3)GlcNAc(a1-3)Gal(b1-4)GlcNAc
# In short: as §1
# [5] = molecular target: Gal(b1-3)GlcNAc(a1-6)Gal(b1-4)GlcNAc
# In short: as §1
# Gal(b1-3)GlcNAc(b1-2)Man = molecular target: Gal(b1-3)GlcNAc(b1-2)Man
# In short: as §1
# [6] = molecular target: Gal(b1-3)GlcNAc(b1-2)Man(a1-3)[Gal(b1-3)GlcNAc(b1-2)Man(a1-6)]Man(b1-4)GlcNAc(b1-4)GlcNAc
# In short: as §1
# [7] = molecular target: Gal(b1-3)GlcNAc(b1-2)Man(a1-3)[Gal(b1-3)GlcNAc(b1-2)Man(a1-6)]Man(b1-4)GlcNAc(b1-4)[Fuc(a1-6)]GlcNAc
# In short: as §1
# [8] = molecular target: Gal(b1-3)GlcNAc(b1-2)Man(a1-3)[GlcNAc(b1-4)][Gal(b1-3)GlcNAc(b1-2)Man(a1-6)]Man(b1-4)GlcNAc(b1-4)GlcNAc
# In short: as §1
# [9] = molecular target: Gal(b1-3)GlcNAc(b1-2)[Gal(b1-3)GlcNAc(b1-6)]Man(a1-6)[Gal(b1-3)GlcNAc(b1-2)Man(a1-3)]Man(b1-4)GlcNAc(b1-4)GlcNAc
# In short: as §1
# [10] = molecular target: Gal(b1-3)GlcNAc(b1-3)Gal(b1-3)GlcNAc
# In short: as §1
# [11] = molecular target: Gal(b1-3)GlcNAc(b1-3)Gal(b1-4)Glc
# In short: as §1
# [12] = molecular target: Gal(b1-3)GlcNAc(b1-3)Gal(b1-4)GlcNAc
# In short: as §1
# [13] = molecular target: Gal(b1-3)GlcNAc(b1-3)Gal(b1-4)GlcNAc(b1-2)Man(a1-3)[Gal(b1-3)GlcNAc(b1-3)Gal(b1-4)GlcNAc(b1-2)Man(a1-6)]Man(b1-4)GlcNAc(b1-4)GlcNAc
# In short: as §1
# [14] = molecular target: Gal(b1-3)GlcNAc(b1-3)Gal(b1-4)GlcNAc(b1-2)[Gal(b1-3)GlcNAc(b1-3)Gal(b1-4)GlcNAc(b1-6)]Man(a1-6)[Gal(b1-3)GlcNAc(b1-3)Gal(b1-4)GlcNAc(b1-2)Man(a1-3)]Man(b1-4)GlcNAc(b1-4)[Fuc(a1-6)]GlcNAc
# In short: as §1
# [15] = molecular target: Gal(b1-3)GlcNAc(b1-3)Gal(b1-4)GlcNAc(b1-3)Gal(b1-4)GlcNAc(b1-2)[Gal(b1-3)GlcNAc(b1-3)Gal(b1-4)GlcNAc(b1-3)Gal(b1-4)GlcNAc(b1-6)]Man(a1-6)[Gal(b1-3)GlcNAc(b1-3)Gal(b1-4)GlcNAc(b1-3)Gal(b1-4)GlcNAc(b1-2)Man(a1-3)]Man(b1-4)GlcNAc(b1-4)[Fuc(a1-6)]GlcNAc
# In short: as §1
# [16] = molecular target: Gal(b1-3)GlcNAc(b1-3)Gal(b1-4)GlcNAc(b1-6)[Gal(b1-3)GlcNAc(b1-3)]Gal(b1-4)Glc
# In short: as §1
# [17] = molecular target: Gal(b1-3)GlcNAc(b1-3)Gal(b1-4)[Fuc(a1-3)]GlcNAc
# In short: as §1
# [18] = molecular target: Gal(b1-3)GlcNAc(b1-3)Gal(b1-4)[Fuc(a1-3)]GlcNAc(b1-6)[Gal(b1-3)GlcNAc(b1-3)]Gal(b1-4)Glc
# In short: as §1
# [19] = molecular target: Gal(b1-3)GlcNAc(b1-3)GalNAc
# In short: as §1
# [20] = molecular target: Gal(b1-3)GlcNAc(b1-6)Gal(b1-4)GlcNAc
# In short: as §1
# [21] = molecular target: Gal(b1-3)GlcNAc(b1-6)GalNAc
# In short: as §1
# [22] = molecular target: Gal(b1-3)GlcNAc(b1-6)[Gal(b1-3)]GalNAc
# In short: as §1
# Gal(b1-3)GlcNAc6S = molecular target: Gal(b1-3)GlcNAc6S
# In short: as §1
# [23] = molecular target: Gal(b1-3)[Fuc(a1-4)]GlcNAc
# In short: as §1
# [24] = molecular target: Gal(b1-3)[Fuc(a1-4)]GlcNAc(b1-2)Man
# In short: as §1
# [25] = molecular target: Gal(b1-3)[Fuc(a1-4)]GlcNAc(b1-2)Man(a1-3)[Gal(b1-3)[Fuc(a1-4)]GlcNAc(b1-2)Man(a1-6)]Man(b1-4)GlcNAc(b1-4)[Fuc(a1-6)]GlcNAc
# In short: as §1
# [26] = molecular target: Gal(b1-3)[Fuc(a1-4)]GlcNAc(b1-3)Gal(b1-3)[Fuc(a1-4)]GlcNAc
# In short: as §1
# [27] = molecular target: Gal(b1-3)[Fuc(a1-4)]GlcNAc(b1-3)Gal(b1-4)[Fuc(a1-3)]GlcNAc
# In short: as §1
# [28] = molecular target: Gal(b1-3)[Fuc(a1-4)]GlcNAc(b1-6)GalNAc
# In short: as §1
# [29] = molecular target: Gal(b1-3)[GlcNAc(b1-6)]GalNAc
# In short: as §1
# [30] = molecular target: Gal(b1-3)[Neu5Ac(a2-6)]GalNAc
# In short: as §1
# [31] = molecular target: Gal(b1-3)[Neu5Ac(a2-6)]GlcNAc(b1-4)Gal(b1-4)Glc
# In short: as §1
# [32] = molecular target: Gal(b1-3)[Neu5Ac(b2-6)]GalNAc
# In short: as §1
# Gal(b1-4)Gal = molecular target: Gal(b1-4)Gal
# In short: as §1
# [33] = molecular target: Gal(b1-4)GalNAc(a1-3)[Fuc(a1-2)]Gal(b1-4)GlcNAc
# In short: as §1
binder,measurement,setting,value
SP15308B-bot-339-22-339 (Bacteroides ovatus) (protein) NEWEDEQYEQYVSFKAPIASGSDGVTTIYVRYKDNGKVTYQLPIIVSGSTVNSQDRDIHIAVDKDTLKTLNIERFSLYRPELWYTEMEEDKYEFPETVHIPAGSCVELLNIDFNLQDIDMLEKWVLPLTIVDDGSYAYQSHPRKNYAKALLKVVPFNNYSGSYTASSMKVYTYINGKPDTNARTTDKRTGYVVDNNSIFFYAGLINEDMDKDMRKKYKINVHFKEDGTLDMKQDDPSNEMEFELIGTPTYSSTSVMDATRPYLERRYVQIMFEYDFQDFTYGGSGTEVIPIKYRVAGSMTLLRNINTQIPDEDQQIEW,glycan array binding signal (z-score),Gal(b1-3)GalNAc(b1-3)Gal,-0.145
same,glycan array binding signal (z-score),[1],-0.273
same,glycan array binding signal (z-score),[2],-0.02
same,glycan array binding signal (z-score),[3],0.325
same,glycan array binding signal (z-score),Gal(b1-3)GlcNAc,-0.25
same,glycan array binding signal (z-score),[4],-0.595
same,glycan array binding signal (z-score),[5],-0.411
same,glycan array binding signal (z-score),Gal(b1-3)GlcNAc(b1-2)Man,0.152
same,glycan array binding signal (z-score),[6],-0.088
same,glycan array binding signal (z-score),[7],-0.235
same,glycan array binding signal (z-score),[8],-0.259
same,glycan array binding signal (z-score),[9],0.629
same,glycan array binding signal (z-score),[10],-0.071
same,glycan array binding signal (z-score),[11],0.179
same,glycan array binding signal (z-score),[12],-0.169
same,glycan array binding signal (z-score),[13],0.178
same,glycan array binding signal (z-score),[14],1.47
same,glycan array binding signal (z-score),[15],-0.031
same,glycan array binding signal (z-score),[16],-0.129
same,glycan array binding signal (z-score),[17],-0.548
same,glycan array binding signal (z-score),[18],-0.06
same,glycan array binding signal (z-score),[19],0.432
same,glycan array binding signal (z-score),[20],0.319
same,glycan array binding signal (z-score),[21],-0.027
same,glycan array binding signal (z-score),[22],0.021
same,glycan array binding signal (z-score),Gal(b1-3)GlcNAc6S,-0.22
same,glycan array binding signal (z-score),[23],-0.425
same,glycan array binding signal (z-score),[24],0.122
same,glycan array binding signal (z-score),[25],0.086
same,glycan array binding signal (z-score),[26],-0.36
same,glycan array binding signal (z-score),[27],0.68
same,glycan array binding signal (z-score),[28],-0.068
same,glycan array binding signal (z-score),[29],-0.271
same,glycan array binding signal (z-score),[30],-0.403
same,glycan array binding signal (z-score),[31],0.133
same,glycan array binding signal (z-score),[32],0.583
same,glycan array binding signal (z-score),Gal(b1-4)Gal,-0.471
same,glycan array binding signal (z-score),[33],-0.159

# An excerpt of these results, bar-delimited.
binder | measurement | setting | value
SP15308B-bot-339-22-339 (Bacteroides ovatus) (protein) NEWEDEQYEQYVSFKAPIASGSDGVTTIYVRYKDNGKVTYQLPIIVSGSTVNSQDRDIHIAVDKDTLKTLNIERFSLYRPELWYTEMEEDKYEFPETVHIPAGSCVELLNIDFNLQDIDMLEKWVLPLTIVDDGSYAYQSHPRKNYAKALLKVVPFNNYSGSYTASSMKVYTYINGKPDTNARTTDKRTGYVVDNNSIFFYAGLINEDMDKDMRKKYKINVHFKEDGTLDMKQDDPSNEMEFELIGTPTYSSTSVMDATRPYLERRYVQIMFEYDFQDFTYGGSGTEVIPIKYRVAGSMTLLRNINTQIPDEDQQIEW | glycan array binding signal (z-score) | [27] | 0.68
same | glycan array binding signal (z-score) | [28] | -0.068
